Results deposited as PubChem BioAssay AID1224828 (NIAID, 2016)

- Aim: 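Regulators linking TLR4 signalling to p65 nuclear translocation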 (primary screen)
- Cell system: mouse RAW264.7 G9 macrophage reporter cells (GFP-p65, Tnf promoter-mCherry)
- Reagents: siRNA pool against mouse genes, 100 nM
- Duration: 2 days siRNA transfection, then 40 min LPS before fixation
- Treatment: LPS (Salmonella minnesota R595) at 10 ng/ml
- Measured: 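Microscopy ratio of nuclear to perinuclear-ring GFP-p65 signal, scaled to the plate median; gene score is the average of two replicate robust z-scores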
- Scale: p65 translocation robust z-score: higher = more nuclear NF-kappaB p65 after LPS than the plate median; nuclear/cytoplasmic p65 ratio: higher = more nuclear NF-kappaB p65
- Active means: 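Active if robust z is above 3.3 (negative regulators) or below -1.56, the Tlr4 control median (positive regulators); activity score 50 or more; control wells not called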
- Meaning of the calls: active = hit (p65 shift raised or lowered); inactive = no clear change
In all, the deposit lists about 17,000 reagents; below is an unselected part. Over the whole deposit, 762 (4.5%) are marked active. 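Active calls include both raised and lowered p65 entry, mostly lowered; wells with fewer than 50 cells lack a z-score.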 The raw values are shown without normalisation. Unmarked entries are inactive. Reagents against one gene are numbered here.

target gene	reagent	p65 translocation robust z-score	nuclear/cytoplasmic p65 ratio, rep 1	nuclear/cytoplasmic p65 ratio, rep 2	low cell count flag
Or51t4 (olfactory receptor family 51 subfamily T member 4)	1		1.42	0	fewer than 50 cells per well; well left out of scoring
Speer3 (spermatogenesis associated glutamate (E)-rich protein 3)	1	-0.27	1.35	1.23	enough cells to score
Vmac	1	0.34	1.58	1.82	enough cells to score
Fgd2 (FYVE, RhoGEF and PH domain containing 2)	1	-1.39	1.42	1.25	enough cells to score
Gtf3a (general transcription factor III A)	1	1.13	1.9	1.63	enough cells to score
Rasal2 (RAS protein activator like 2)	1	-1.07	1.43	1.47	enough cells to score
Rasal2 (RAS protein activator like 2)	2	0.64	1.46	1.69	enough cells to score
Kctd10 (potassium channel tetramerisation domain containing 10)	1	-0.89	1.49	1.25	enough cells to score
Pramel7 (PRAME like 7)	1	0.47	1.42	1.28	enough cells to score
Slc27a1	1	0.4	1.31	1.3	enough cells to score
Mbnl3 (muscleblind like splicing factor 3)	1	-0.95	1.58	1.22	enough cells to score
Mepce (methylphosphate capping enzyme)	1	-0.74	1.41	1.49	enough cells to score
Bub1 (BUB1, mitotic checkpoint serine/threonine kinase)	1	-1.59 (active)	1.45	1.17	enough cells to score
Amfr (autocrine motility factor receptor)	1	-0.18	1.59	1.59	enough cells to score
B330016D10Rik (RIKEN cDNA B330016D10 gene)	1	-1.09	1.24	1.66	enough cells to score
Deup1 (deuterosome assembly protein 1)	1		1.33	1.22	fewer than 50 cells per well; well left out of scoring
Cdk18 (cyclin dependent kinase 18)	1		1.63	1.33	fewer than 50 cells per well; well left out of scoring
Rpl27a (ribosomal protein L27A)	1	-1.34	1.14	1.15	enough cells to score
Vmn1r10 (vomeronasal 1 receptor 10)	1	0.29	1.38	1.3	enough cells to score
Zswim3 (zinc finger SWIM-type containing 3)	1	1.04	1.6	1.37	enough cells to score
Thsd1 (thrombospondin, type I, domain 1)	1	0.7	1.45	1.24	enough cells to score
A830039N20Rik (RIKEN cDNA A830039N20 gene)	1	0.73	1.52	1.58	enough cells to score
Rttn (rotatin)	1		1.48	1.26	fewer than 50 cells per well; well left out of scoring
Zmynd8 (zinc finger, MYND-type containing 8)	1	0.48	1.82	1.56	enough cells to score
Grik2 (glutamate receptor, ionotropic, kainate 2 (beta 2))	1	1.37	1.52	1.64	enough cells to score
Etfrf1 (electron transfer flavoprotein regulatory factor 1)	1	-0.18	1.27	1.25	enough cells to score
Or5p51 (olfactory receptor family 5 subfamily P member 51)	1		1.84	1.17	fewer than 50 cells per well; well left out of scoring
Tcim (transcriptional and immune response regulator)	1		1.45	1.3	fewer than 50 cells per well; well left out of scoring
Asgr2 (asialoglycoprotein receptor 2)	1	-0.13	1.6	1.59	enough cells to score
Thpo (thrombopoietin)	1	0.34	1.56	1.58	enough cells to score
Tnfrsf13b (tumor necrosis factor receptor superfamily, member 13b)	1	0.11	1.45	1.62	enough cells to score
Plekha6 (pleckstrin homology domain containing A6)	1	-0.84	1.29	1.18	enough cells to score
Ppif (peptidylprolyl isomerase F (cyclophilin F))	1	-0.58	1.24	1.21	enough cells to score
A730036I17Rik (RIKEN cDNA A730036I17 gene)	1	-1.3	1.2	1.35	enough cells to score
Hapln2 (hyaluronan and proteoglycan link protein 2)	1	0.41	1.76	1.55	enough cells to score
Dlx1 (distal-less homeobox 1)	1		1.29	1.09	fewer than 50 cells per well; well left out of scoring
Ergic1 (endoplasmic reticulum-golgi intermediate compartment 1)	1	-0.55	1.32	1.35	enough cells to score
Ocln (occludin)	1	0.18	1.52	1.39	enough cells to score
Tnfrsf22 (tumor necrosis factor receptor superfamily, member 22)	1	-1.91 (active)	1.12	1.05	enough cells to score
Tnfrsf22 (tumor necrosis factor receptor superfamily, member 22)	2	2.02	1.69	1.82	enough cells to score

A run of entries of the results above, for reference:
target gene	reagent	p65 translocation robust z-score	nuclear/cytoplasmic p65 ratio, rep 1	nuclear/cytoplasmic p65 ratio, rep 2	low cell count flag
Etfrf1 (electron transfer flavoprotein regulatory factor 1)	1	-0.18	1.27	1.25	enough cells to score
Or5p51 (olfactory receptor family 5 subfamily P member 51)	1		1.84	1.17	fewer than 50 cells per well; well left out of scoring
Tcim (transcriptional and immune response regulator)	1		1.45	1.3	fewer than 50 cells per well; well left out of scoring
